# Test results from publication doi:10.1101/679936.
# These are yes or no findings as the source states them, for the method shown. In cells and extracts the contact can be indirect. Some entries that bind do so weakly or less than the wild type. Tags and fused reporters may be left off the sequences shown.
# T1: FLAG-SREBP1a (UniProt P36956)
# T1 sequence: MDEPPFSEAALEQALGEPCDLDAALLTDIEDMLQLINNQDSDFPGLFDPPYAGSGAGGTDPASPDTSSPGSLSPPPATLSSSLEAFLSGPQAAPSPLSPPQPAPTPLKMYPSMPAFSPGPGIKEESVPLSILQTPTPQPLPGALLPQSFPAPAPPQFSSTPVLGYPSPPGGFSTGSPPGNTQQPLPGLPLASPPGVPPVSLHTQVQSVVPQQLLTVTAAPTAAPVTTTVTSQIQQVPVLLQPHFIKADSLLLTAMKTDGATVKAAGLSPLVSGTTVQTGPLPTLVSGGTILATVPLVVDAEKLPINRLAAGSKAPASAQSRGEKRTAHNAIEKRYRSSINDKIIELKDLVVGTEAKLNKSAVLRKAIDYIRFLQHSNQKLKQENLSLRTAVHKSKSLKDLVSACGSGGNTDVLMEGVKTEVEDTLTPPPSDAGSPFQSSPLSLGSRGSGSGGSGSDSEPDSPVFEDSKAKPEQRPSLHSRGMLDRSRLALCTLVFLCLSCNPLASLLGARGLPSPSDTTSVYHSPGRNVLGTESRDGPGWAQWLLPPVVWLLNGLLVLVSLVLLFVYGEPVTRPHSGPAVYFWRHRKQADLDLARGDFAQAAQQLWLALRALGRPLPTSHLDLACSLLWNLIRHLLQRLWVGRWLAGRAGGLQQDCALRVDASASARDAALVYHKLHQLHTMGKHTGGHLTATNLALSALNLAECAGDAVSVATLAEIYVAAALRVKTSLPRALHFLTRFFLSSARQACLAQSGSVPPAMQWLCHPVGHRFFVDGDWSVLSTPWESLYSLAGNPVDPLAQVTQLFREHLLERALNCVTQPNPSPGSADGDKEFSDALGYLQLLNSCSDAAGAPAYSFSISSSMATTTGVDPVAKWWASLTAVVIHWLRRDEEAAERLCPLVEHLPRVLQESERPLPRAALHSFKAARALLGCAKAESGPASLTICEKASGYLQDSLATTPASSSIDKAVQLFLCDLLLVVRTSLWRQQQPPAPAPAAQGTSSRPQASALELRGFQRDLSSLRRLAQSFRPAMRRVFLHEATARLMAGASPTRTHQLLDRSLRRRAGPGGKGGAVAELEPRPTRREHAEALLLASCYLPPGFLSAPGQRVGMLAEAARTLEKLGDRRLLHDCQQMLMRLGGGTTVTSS
# T2: FLAG-tagged hamster SCAP (hamster) (UniProt P97260)
# T2 sequence: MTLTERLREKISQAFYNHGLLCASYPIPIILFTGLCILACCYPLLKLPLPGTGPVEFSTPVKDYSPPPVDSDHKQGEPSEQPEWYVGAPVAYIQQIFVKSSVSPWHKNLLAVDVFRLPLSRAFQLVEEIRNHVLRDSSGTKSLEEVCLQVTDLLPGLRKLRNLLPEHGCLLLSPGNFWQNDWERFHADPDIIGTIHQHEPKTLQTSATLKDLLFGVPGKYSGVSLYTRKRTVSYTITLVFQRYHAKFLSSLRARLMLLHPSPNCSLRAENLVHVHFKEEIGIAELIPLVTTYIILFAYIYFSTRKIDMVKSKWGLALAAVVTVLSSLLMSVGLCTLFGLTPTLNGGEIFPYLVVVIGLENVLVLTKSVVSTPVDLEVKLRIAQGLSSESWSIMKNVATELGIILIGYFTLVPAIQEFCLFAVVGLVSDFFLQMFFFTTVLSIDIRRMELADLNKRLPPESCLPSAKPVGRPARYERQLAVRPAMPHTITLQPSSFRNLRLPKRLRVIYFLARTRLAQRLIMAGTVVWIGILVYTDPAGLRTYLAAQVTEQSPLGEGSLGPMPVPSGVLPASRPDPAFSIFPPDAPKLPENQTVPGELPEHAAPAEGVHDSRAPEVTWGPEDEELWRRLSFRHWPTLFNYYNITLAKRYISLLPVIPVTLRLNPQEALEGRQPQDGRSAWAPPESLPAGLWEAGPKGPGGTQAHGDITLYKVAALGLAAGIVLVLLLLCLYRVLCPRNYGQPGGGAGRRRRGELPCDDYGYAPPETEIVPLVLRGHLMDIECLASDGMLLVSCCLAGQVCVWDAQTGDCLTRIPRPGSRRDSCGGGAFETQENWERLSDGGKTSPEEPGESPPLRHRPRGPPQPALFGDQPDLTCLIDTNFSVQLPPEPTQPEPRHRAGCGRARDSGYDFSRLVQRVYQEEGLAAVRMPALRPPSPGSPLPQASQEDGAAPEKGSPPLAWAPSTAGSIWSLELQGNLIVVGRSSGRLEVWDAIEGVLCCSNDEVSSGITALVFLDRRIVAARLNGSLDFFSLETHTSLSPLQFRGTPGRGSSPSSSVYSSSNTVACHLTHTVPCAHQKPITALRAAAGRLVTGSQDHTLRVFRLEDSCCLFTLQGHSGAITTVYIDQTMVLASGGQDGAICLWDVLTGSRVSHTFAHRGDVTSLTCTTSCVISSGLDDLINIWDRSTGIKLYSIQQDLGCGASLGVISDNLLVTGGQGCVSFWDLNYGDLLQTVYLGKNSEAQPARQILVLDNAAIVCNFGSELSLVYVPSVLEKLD
# Legend:
# [1] = target: T1, FLAG-SREBP1a; assay: co-IP
# [2] = target: T2, FLAG-tagged hamster SCAP (hamster); assay: co-IP
binder,measurement,setting,value
"Sac1, endogenous in HEK 293T (protein, UniProt Q9NTJ5 1-587) MATAAYEQLKLHITPEKFYVEACDDGADDVLTIDRVSTEVTLAVKKDVPPSAVTRPIFGILGTIHLVAGNYLIVITKKIKVGEFFSHVVWKATDFDVLSYKKTMLHLTDIQLQDNKTFLAMLNHVLNVDGFYFSTTYDLTHTLQRLSNTSPEFQEMSLLERADQRFVWNGHLLRELSAQPEVHRFALPVLHGFITMHSCSINGKYFDWILISRRSCFRAGVRYYVRGIDSEGHAANFVETEQIVHYNGSKASFVQTRGSIPVFWSQRPNLKYKPLPQISKVANHMDGFQRHFDSQVIIYGKQVIINLINQKGSEKPLEQTFATMVSSLGSGMMRYIAFDFHKECKNMRWDRLSILLDQVAEMQDELSYFLVDSAGQVVANQEGVFRSNCMDCLDRTNVIQSLLARRSLQAQLQRLGVLHVGQKLEEQDEFEKIYKNAWADNANACAKQYAGTGALKTDFTRTGKRTHLGLIMDGWNSMIRYYKNNFSDGFRQDSIDLFLGNYSVDELESHSPLSVPRDWKFLALPIIMVVAFSMCIICLLMAGDTWTETLAYVLFWGVASIGTFFIILYNGKDFVDAPRLVQKEKID",binding,[1],binds
same,binding,[2],binds weakly
